# Assay results: the supplement of paper PMC10735217
# “And” between values parts separate entries of the source, which are not always exact repeats. Identical values can stand only once. Counter-ions that a name gives are not always drawn. Some of the results follow. This data set is noisy: repeats of one test often differ as much as different tests do.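 In a drug-repurposing library screen, luminescence reads luciferase driven by eight TEAD-binding elements, stably integrated into human kidney-derived cells. Compounds scoring over five robust Z scores above the plate mean are called hits.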
# Tested on: HEK293A TEAD-LUC reporter
# Experiment: TEAD-luciferase reporter activity (YAP activation), robust Z score vs plate; higher = stronger YAP/TEAD activation
# Conditions: 24 h
SMILES,TEAD-luciferase reporter activity (compound concentration: 200 nM),TEAD-luciferase reporter activity (compound concentration: 2 uM),TEAD-luciferase reporter activity (compound concentration: 10 uM)
O=c1ccn([C@@H]2O[C@H](COP(=O)(O)OP(=O)(O)OP(=O)(O)O)[C@@H](O)[C@H]2O)c(=O)[nH]1 [Uridine triphosphate],inactive: 0.297,inactive: -0.546,inactive: -0.665
CC(C)(C)NCC(O)COc1ccc(O)c2c1C1CCC2CC1 (stereo not drawn) [Nafetolol],inactive: -1.57,inactive: 0.376,inactive: 1.12
O=C(c1ccc(F)cc1)C1CCN(CCCN2c3ccccc3Sc3ccc(C(F)(F)F)cc32)CC1 [duoperone],inactive: -1.21,inactive: -0.978,inactive: -0.317
C=C1/C(=C\C=C2/CCC[C@]3(C)C([C@@H](C)C/C=C/C(O)(CC)CC)=CC[C@@H]23)C[C@@H](O)C[C@@H]1F,inactive: 0.525,inactive: -0.572,inactive: -1.09
CC(=O)NC1C(O)OC(CO)C(O)C1OC1OC(C(=O)O)C(OC2OC(CO)C(O)C(OC3OC(C(=O)O)C(O)C(O)C3O)C2NC(C)=O)C(O)C1O (stereo not drawn) [Hyaluronic Acid],inactive: -0.831,,inactive: 1.62
COC[C@H](C)NC(=O)c1nc(N2CC[C@@H](NC(=O)c3[nH]c(C)c(Cl)c3Cl)[C@@H](OC)C2)sc1C(=O)O,inactive: -1.37,inactive: -1.22,inactive: 0.418
CC(C)C(NC(=O)C(CC(=O)O)NC(=O)C(CCCCN)NC(=O)C(N)CCCNC(=N)N)C(=O)NC(Cc1ccc(O)cc1)C(=O)O (stereo not drawn) [thymopentin],inactive: -2.81,inactive: -0.256,inactive: -0.674
OC(CNCC(O)C1COc2ccccc2O1)C1COc2ccccc2O1 (stereo not drawn),inactive: -0.628,inactive: -1.02,inactive: -1.34
N[C@@H]1CC[C@@H](c2ccc(Cl)c(Cl)c2)c2ccccc21 [Dasotraline],inactive: -0.0204,inactive: -0.966,inactive: -0.32
O=C(O)Cn1c2c(c3cc(F)ccc31)CN(C(=O)c1cccc3ccccc13)CC2 [Setipiprant],inactive: -1.19,inactive: -0.792,inactive: 0.5
C[n+]1ccc(SCC2=C(C(=O)O)N3C(=O)C(NC(=O)/C(=N\OC4CCCC4)c4csc(N)n4)[C@H]3CS2)cc1 (stereo partly drawn),inactive: -1.2,inactive: -1.49,inactive: -0.448
Cc1cc(COc2ccc(Oc3ccc(Cl)cc3)cc2)n(O)c(=O)c1 [Rilopirox],inactive: 1.36,inactive: -1.87,inactive: -2.11
O=c1[nH]c2sc(Cl)c(-c3ccc4c(c3O)CCCC4)c2c(O)c1-c1ccccc1,inactive: -0.702,inactive: -0.723,inactive: 3.54
COc1cc(C)c(Cc2cnc(N)nc2N)cc1OC,inactive: -0.0167,inactive: 1.75,inactive: 2.87
COc1ccc2c(c1)CN(C(=O)C(=O)O)CCS2 [aladorian],inactive: 0.843,inactive: -2.05,inactive: 0.805
CC1=C(CC(=O)NCc2ccncc2)c2cc(F)ccc2/C1=C/c1ccc(S(C)=O)cc1 (stereo not drawn),inactive: -2.11,inactive: -1.22,inactive: 1.52
O=C(C1CCCN1c1nc2ncccc2o1)N1CCCC1 (stereo not drawn),inactive: 0.158,,inactive: 2.53
O=S(=O)([O-])CCS,inactive: -1.07,,inactive: -1.2
O=S(=O)([O-])CCS [uromitexan],,inactive: -1.21,
COc1ccc2c(c1)C(c1ccc(F)cc1)=C(CN1CCCC1)CO2 [AX-024 hydrochloride],inactive: -1.41,inactive: -1.1,inactive: -0.847
Cc1ccc(F)c(NC(=O)Nc2ccc(-c3cccc4[nH]nc(N)c34)cc2)c1 [Linifanib],inactive: -1.06,inactive: 2.9,inactive: -0.302
CN(C(=S)NN=C(c1ccccn1)c1ccccn1)C1CCCCC1,inactive: -0.366,inactive: -0.611,inactive: -0.409
CCCCN(CCCC)CC(O)c1cc(-c2ccc(Cl)cc2)nc2c(Cl)cc(Cl)cc12 (stereo not drawn),inactive: 0.567,inactive: -0.675,inactive: 0.707
Oc1ccc2c(c1)CC[C@H](c1ccccc1)[C@H]2c1ccc(OCCN2CCCC2)cc1 [Lasofoxifene tartrate],inactive: -0.69,inactive: -0.257,inactive: 0.175
COc1ccc(CS(=O)c2ncccc2C(=O)Nc2ccnc(N(C)C)c2)c(OC)c1 (stereo not drawn),inactive: 2.34,inactive: 0.495,inactive: 1.9
O=c1[nH]c2ccc(C(F)(F)F)cc2c(-c2cc(Cl)ccc2O)c1CCO,inactive: 3.09,inactive: -0.668,inactive: -0.102

SMILES,TEAD-luciferase reporter activity (compound concentration: 200 nM),TEAD-luciferase reporter activity (compound concentration: 2 uM),TEAD-luciferase reporter activity (compound concentration: 10 uM)
COCC1CN(c2ccc(OCc3cccc(C(N)=O)c3)cc2)C(=O)O1 (stereo not drawn),inactive: -1.16,inactive: 2.6,inactive: 1.48
COc1ccc(CCNC(=O)CNc2cccc(C(N)=O)c2)cc1OC,inactive: -1.43,inactive: -0.561,inactive: -0.214
CC(=O)Oc1ccccc1C(=O)Oc1c(C)occc1=O [aspalatone],inactive: -0.268,inactive: -1.96,inactive: 0.432
CC/C(=C(\c1ccc(O)cc1)c1ccc(/C=C/C(=O)O)cc1)c1ccccc1,inactive: -2.84,inactive: -1.53,inactive: -2.73
COCCN1CCC(N(Cc2ccc(-c3ccc(C(F)(F)F)cc3)cc2)C(=O)Cn2c(CCc3cccc(F)c3F)nc(=O)c3cccnc32)CC1,inactive: -0.452,inactive: 0.328,inactive: 0.344
CCC(=O)O[C@]1(C(=O)COC(C)=O)CC[C@H]2[C@@H]3C[C@H](C)C4=CC(=O)C=C[C@]4(C)[C@H]3[C@@H](O)C[C@@]21C [Methylprednisolone aceponate],inactive: -0.42,inactive: 2.98,inactive: 0.843
CC12CCC(=O)C=C1CC[C@@H]1[C@@H]2[C@@H](O)CC2(C)[C@H]1CC[C@]2(O)C(=O)COC(=O)CCC1CCCC1 (stereo partly drawn),inactive: 1.34,inactive: -0.655,inactive: 0.561
CCC(=O)N1Cc2ccccc2CC2(CCCCN2Cc2ccncc2)C1 (stereo not drawn),inactive: -2.81,,inactive: -0.74
C[C@@H]1CS/C(=N\NC(=O)C(=O)[C@H](NC(=O)C2CCCCCC2)C2CCOCC2)N1C,inactive: 4.12,inactive: 1.06,inactive: 1.03
OC[C@H]1O[C@@H](O[C@@H]2[C@H](O)[C@@H](O)[C@H](O[C@H]3[C@H](O)[C@@H](O)C(O)O[C@@H]3CO)O[C@@H]2CO)[C@H](O)[C@@H](O)[C@H]1O (stereo partly drawn) [4'-Galactosyllactose],inactive: -0.394,inactive: 0.86,inactive: 0.0612
CC(=O)Nc1ccc(OCc2cccc(F)c2)cc1,inactive: 0.58,inactive: 1.83,active: 5.3
N[C@@]1(C(=O)O)CS(=O)(=O)[C@H]2[C@H](C(=O)O)[C@H]21,inactive: -1.53,inactive: -0.689 and inactive: -1.19,inactive: 1.41
CC(C)(Cc1ccc(F)cc1)NC(=O)[C@H](CCC(=O)O)NC(=O)c1ccc(-c2ccccc2)cc1,inactive: 0.134,inactive: 0.00714,inactive: 2.78
CC1(C)CCC(C)(C)c2cc(NC(=O)c3ccc(C(=O)O)cc3)ccc21,inactive: -0.034,inactive: -0.575,inactive: 3.05
COc1ccc(-n2nc(O)c3[nH]c4cc(Cl)ccc4c(=O)c3c2=O)c(C)c1,inactive: -0.614,inactive: -0.409,inactive: 0.653
COc1cccc(N2CCN(CC(=O)NC3c4c(O)c(C)cc(C)c4CC3(C)C)CC2)c1 (stereo not drawn),inactive: -1.06,inactive: -1.67,inactive: -0.561
Cc1ccc(-c2cccc(CN3CCCC3C(=O)NCc3ccccc3Cl)c2)cc1Cl (stereo not drawn),inactive: 4.43,,inactive: 0.82
CC(O)C1Sc2ccccc2N(CCCN(C)C)C1c1ccccc1 (stereo not drawn),inactive: -0.696,inactive: -1.08,inactive: 1.29
Cn1cc(-c2cnc3ccc4ccc(CS(=O)(=O)NCc5ccccn5)cc4c(=O)c3c2)cn1,inactive: 1.31,inactive: -2.36,inactive: 0.639
CC(=O)N1CCC(C(=O)N(CCCN2CCC(Cc3ccc(C(N)=O)cc3)CC2)c2ccc(C)c(Cl)c2)CC1,inactive: 0.192,inactive: -0.951,inactive: 1.96
CC12CC[C@](C)(C(=O)O)C[C@@H]1C1=CC(=O)[C@@H]3C4(C)CC[C@H](OC(=O)[C@H]5CCCC[C@H]5C(=O)O)C(C)(C)C4CCC3(C)[C@]1(C)CC2 (stereo partly drawn) [Cicloxolone],inactive: 1.3,inactive: -0.744,inactive: 0.136
Cn1nnnc1SCC1=C(C(=O)O)N2C(=O)[C@@H](NC(=O)CSC(F)(F)F)[C@H]2SC1 [Cefazaflur],inactive: 1.18,inactive: 2.16,inactive: -0.979
NC(=O)c1ccn(-c2cnc(NC[C@]3(c4ncccc4F)C[C@H](F)C3)nc2)c1,inactive: 0.888,inactive: -0.0643,inactive: -0.968
C=CCNC1=C2C[C@@H](C)C[C@H](OC)[C@H](O)[C@@H](C)/C=C(\C)[C@H](OC(N)=O)[C@@H](OC)/C=C\C=C(/C)C(=O)NC(=CC1=O)C2=O [17-AAG (Tanespimycin)],inactive: 3.02,,inactive: 0.106
C=CCNC1=C2C[C@@H](C)C[C@H](OC)[C@H](O)[C@@H](C)/C=C(\C)[C@H](OC(N)=O)[C@@H](OC)/C=C\C=C(/C)C(=O)NC(=CC1=O)C2=O [Tanespimycin],,inactive: -1.96,
